The text below walks through data of PubChem BioAssay AID1458 (National Center for Advancing Translational Sciences (NCATS), 2008).

Out of some 210,000 compounds screened, about 5,900 (2.8%) were called active. Inconclusive results (about 5%) are left out. The call rests on the fitted dose curve; in most records, active means well fitted activation curve with a large enough effect; inconclusive means small, poorly fitted or top-dose-only effect; inactive means no such curve, though single readings can be large or run the other way. Only a part is listed here, and it is no random draw. The source gives no active or inactive call for entries shown without one.
Potency means the concentration at half of the fitted maximal effect.

The nature of the experiment: qHTS Assay for Enhancers of SMN2 Splice Variant Expression. Further: nearly all actives have a fitted effect of over 55% in size. On activity change, positive = activation: % of control where 0% means no effect. The conditions noted are these: HEK293 SMN2-luciferase splicing reporter, luminescence, 30-36 h; activity change, positive = activation: at 46.1 µM (top of the series) unless noted. From the text:
NIH Chemical Genomics Center [NCGC] NIH Molecular Libraries Probe Production centers Network [MLPCN] MLPCN Grant: R03 MH084179-01 Assay Submitter (PI): Elliot Androphy NCGC Assay Overview: Spinal muscular atrophy (SMA) is caused by insufficient levels of the survival motor neuron protein SMN. The SMN locus on chromosome 5q13 contains two inverted copies of SMN called SMN1 and SMN2 which are 99% identical at the amino acid level. SMN1 is a fully functional protein and SMN2 skips exon 7 90% of the time. Skipping of exon 7 produces non-functional protein product. 10% of the SMN2 protein includes exon 7 and is fully functional. In the SMA disease state, mutations in the SMN1 locus are the cause of the disease state. Because only 10% of SMN2 is of the fully functional form, it is not sufficient to overcome the deficiency produced by the loss of the SMN1 product. A therapy that either increase the amount of SMN2 product made or to increase the inclusion of exon 7 has been proposed for the treatment of SMA. We have designed an assay to identify small molecules that can increase the amount of functional SMN2 product by appending a luciferase reporter gene after the native SMN2 gene, such that inclusion of exon 7 in the expressed product places the luciferase sequence in frame, thus generating functional luciferase enzyme.
NCGC Assay Protocol Summary: This screen utilizes a luciferase reporter gene assay, combining the promoter and splicing based cassettes in tandem with the major portion of the native SMN2 cDNA, and then transfected into HEK293 cells. Compounds that increase luciferase signal presumably enhance expression of the functional SMN2 splice variant. Passaging media contained DMEM w/ glutamax (+phenol red) 10% FCS, 1x pen/strep, 200 ug/ml hygro, 1x sodium pyruvate. Assay media contained DMEM w/ glutamax (-phenol red) 10% FCS, 1x pen strep, 1x pyruvate Sequence, Parameter, Value, Description (1) Cells, […], 2000 cells/well, 1536 TC treated White solid bottom plate (2) Time, 10-12 hours, 37C 5% CO2 (3) Compound, 23 nl, MLSMR Library (4) Control Compound, 23 nL, Sodium butyrate st 4.5mM (final) conc (5) Time, 30-36 hours, 37C 5% CO2 (6) Reagent, 3 ul, One Glo (TM) from Promega (7) Time, 5-15 minutes, Room temp (8) Detector, Viewlux: luminescent read, 60 second integration, high speed 2x binning Keywords: Spinal muscular atrophy, SMA, SMN2, high throughput screening, MLSMR, MLPCN, NIH Roadmap, qHTS and NCGC
On the technique in general: qHTS replaces the single test concentration by a dilution series.
Take `CC1=Nc2cc(C(=O)NCCCOC(C)C)ccc2Sc2ccccc21`: the activity change, positive = activation was -33.4%.

Regarding `Cc1cccc(Nc2nnc(SCC(=O)c3ccc(Br)s3)s2)c1C`, the activity change, positive = activation was -60.1%. `CCOc1cc(C(=O)Nc2ccccc2F)cc(Br)c1OCC`: the “activity change, positive = activation” value was inactive: -11.4%. In the case of `COc1ccc(-c2cc(C)nc3nc(N)nn23)cc1`, the activity change, positive = activation worked out at 38.2%. For the molecule `CC(C)Cn1c(-c2ccccc2)nc(=S)c2c1CCCC2`, the activity change, positive = activation is 32%. With `O=C1C=C(NCCN2CCOCC2)C(=O)c2cnccc21`, the “activity change, positive = activation” value is inactive: -101%. With `O=C(c1cccc(F)c1)N1CCC[C@@]2(CCN(c3ccccc3)C2)C1`, the “activity change, positive = activation” value is inactive: -82.8%. Take `CCOC(=O)c1cnc(SCc2ccc(C(C)(C)C)cc2)nc1N`: the “activity change, positive = activation” value is inactive: -40.2%. Turning to `Cc1cc(C(C)(C)C)cc(S(=O)(=O)NCCO)c1C`, the activity change, positive = activation came out at 40.4%. Take `OC(c1ccc(OCc2ccccc2)cc1)c1nnc(-c2ccccc2)o1` (stereo unspecified): the activity change, positive = activation is -75%. Still for that read-out and setting: in the case of `c1ccc(CCNc2ncnc3ccccc23)cc1` it was 89.4%; in that of `CCOC(=O)c1c(NC(=O)c2cc3ccccc3c(=O)o2)sc2c1CCC(C)C2` (stereo unspecified), 31.7%; in that of `CCOC(=O)c1[nH]c(C)c(C(=O)N(C)C)c1C`, 34.2%.

With `CC(C)(C)OC(=O)N1CCC(c2nnc(SCc3cccc(Cl)c3)o2)CC1`, the “activity change, positive = activation” value was inactive: -44.6%. Turning to `COC(=O)c1c(C#N)c(N)nc2c1CCC2`, the activity change, positive = activation worked out at 35.8%.

As for `CCOC(=O)CC(=O)CSc1nc2sc(C)cc2c(=O)n1Cc1ccco1`, the activity change, positive = activation is -35%. Take `COC(=O)C1CCN(C(=O)/C=C/c2ccc(OC)cc2)CC1`: the activity change, positive = activation came to 45%. Take `CC(C)(C)OC(=O)N1CCC[C@H]1C(=O)NCC1CCC(C(=O)O)CC1` (stereo partly specified): the “activity change, positive = activation” value was inactive: -28.9%. For the molecule `Cc1ccc(-c2noc(C3CCCN(C(=O)c4c(F)cccc4F)C3)n2)cc1` (stereo unspecified), the “activity change, positive = activation” value is inactive: -35.1%. Regarding `Cc1ccc(C(=O)CC2(O)C(=O)N(Cc3ccccc3)c3ccccc32)o1` (stereo unspecified), the Potency is active: 11.2 µM. Regarding `Cc1ccc(S(=O)(=O)Nc2ccncc2)c(C)c1N(C)S(=O)(=O)c1ccc(Cl)cc1`, the activity change, positive = activation was -36.6%. Turning to `CC(C)Oc1ccc(NC(=O)c2ccncc2)cc1`, the activity change, positive = activation was -41%. For the molecule `Cc1sc2nc(CN(C(=O)NC3CCCCC3)C3CCCC3)[nH]c(=O)c2c1C`, the activity change, positive = activation is -35.9%. On the same count and under the same terms, in the case of `CCC(CC)C(=O)Nc1nc(-c2ccc3c(c2)CCN3C(=O)C2CC2)c(C)s1` it was inactive: -30.3%. In the case of `C=CCn1c(SCC(N)=O)nc(C)cc1=O`, the activity change, positive = activation worked out at 24.8%. The same measure, in the same setting: in the case of `CCOc1ccc(NC(=O)C2CC(C)=C(C)CC2C(=O)O)cc1` (stereo unspecified) it was 35.8%.

On to `COCCn1c(-c2cc(OC)c(OC)c(OC)c2)nc2oc3ccccc3c(=O)c2c1=O`, for which the Potency is active: 14.1 µM. Take `CCOc1ccc(C(=O)CCC(=O)NC(CC(C)C)C(=O)OC)cc1` (stereo unspecified): the activity change, positive = activation came out at 11.9%. On to `COc1cnc(-c2ccccn2)nc1Sc1ccc(C)cc1`, for which the “activity change, positive = activation” value is inactive: -104%. The same measure, in the same setting: in the case of `O=C(COc1ccc(S(=O)(=O)NC2CCCC2)cc1)N1CCCCCC1` it was 36.1%. In the case of `Cc1oc(-c2ccccc2)cc1C(=O)Nc1cccc(C(=O)O)c1`, the activity change, positive = activation amounted to 30.9%. On to `CCNc1nc(N)nc(Oc2ccc(OCCOc3ccccc3)nn2)n1`, for which the activity change, positive = activation was 76.1%. As for `CCCCN(C)C(=S)Nc1ccsc1C(=O)OC`, the activity change, positive = activation is -83.9%. Regarding `COc1cccc(C(=O)N2c3ccccc3Sc3ccccc32)c1`, the activity change, positive = activation is -45.1%. With `O=C(Cn1cc(SCc2cccc(Cl)c2)c2ccccc21)N1CCOCC1`, the activity change, positive = activation came out at 118%. For `Cc1sc2ncnc(N[C@@H](Cc3c[nH]c4ccccc34)C(=O)O)c2c1C`, the activity change, positive = activation is 17.6%. Regarding `O=C(Nc1ccc2c(c1)CCC2)c1cnccn1`, the Potency is active: 12.6 µM. Take `N#CC(Sc1ccccn1)c1ccc(Cl)cc1` (stereo unspecified): the activity change, positive = activation came out at 32.1%.

For the molecule `COCCNC(=O)c1noc2c1CCc1cc(OC)ccc1-2`, the Potency is active: 7.94 µM. With `O=C(C1CCC1)N1CCc2cc(S(=O)(=O)NCc3cccnc3)ccc21`, the activity change, positive = activation is -45.5%. Turning to `Cc1cc(/C=C(\C#N)C(=O)NC2CC2)c(C)[nH]1`, the Potency was active: 11.2 µM. Turning to `CCOc1ccc2nc(SC3CC(=O)N(c4ccc(C)cc4)C3=O)sc2c1` (stereo unspecified), the “activity change, positive = activation” value was inactive: -91.6%. Consider `COc1cc(O)c2c(=O)c3c(OC)c(O)ccc3oc2c1`, for which the activity change, positive = activation is 92.3%. For `O=C(Nc1ccc(Cl)c(Cl)c1)Nc1ccc(N2CCCC2)c(S(=O)(=O)Nc2ccccc2Cl)c1`, the “activity change, positive = activation” value is inactive: -46%.

On to `CCn1c(=O)[nH]c2cc(C(=O)N3CCN(c4ccccc4)CC3)ccc2c1=O`, for which the activity change, positive = activation came to 46.6%. The same measure, in the same setting: in the case of `CCN(C(=O)c1ccc(C(C)(C)C)cc1)c1nnc(Cn2nnc3ccccc32)s1` it was inactive: -59%; in that of `CCC(C(=O)Nc1cc(C)nn1-c1nc(C)cc(C)n1)c1ccccc1` (stereo unspecified), -69%. `Cc1nnc(-c2cnn(C)c2N)n1Cc1cccc(Cl)c1`: the activity change, positive = activation came to 25.2%.

In the case of `CCOC(=O)CNC(=O)CSc1nc(N)cc(N)n1`, the activity change, positive = activation stood at 38.8%. For the molecule `OC(Cn1cncn1)(c1ccccc1)c1ccccc1`, the activity change, positive = activation is 41.5%.

`O=C(Nc1ccccc1O)c1cc(S(=O)(=O)N2CCCC2)ccc1Cl`: the “activity change, positive = activation” value was inactive: -31.9%. In the case of `COc1ccc(/C=N/NC(=O)CO/N=C(\C)c2cccs2)cc1`, the “activity change, positive = activation” value is inactive: -35.6%.

For `CC(C)(C)c1ccc(CN(Cc2ccccc2)C(c2ccccn2)c2nnnn2C(C)(C)C)cc1` (stereo unspecified), the activity change, positive = activation is -37.9%. Same read-out and setting: the value for `COc1cccc(C(=O)Nc2cnn(C(C)C)c2)c1` was 123%; that for `Cc1ccc(/C=N\NC(=O)COc2ccc(C)cc2[N+](=O)[O-])cc1` was inactive: -9.1%. Still for that read-out and setting: in the case of `O=S(=O)(Nc1cc(Sc2ncn[nH]2)c(O)c2ccccc12)c1ccccc1` it was inactive: -113%. `Cc1conc1NC(c1cccs1)c1ccc2cccnc2c1O` (stereo unspecified): the “activity change, positive = activation” value is inactive: -77.5%.

Turning to `O=C(c1cccc(F)c1)N1CCC2(CC1)CCN(c1ncccn1)CC2`, the “activity change, positive = activation” value is inactive: -39.2%.

Turning to `COc1ccc2oc3cc(C)[n+]([O-])c(-c4ccc(Cl)cc4)c3c2c1`, the activity change, positive = activation is -62.5%. Regarding `O=S(=O)(c1ccc(-c2csc(=Nc3ccc(OC(F)(F)Cl)cc3)n2CCCO)cc1)N1CCCC1`, the “activity change, positive = activation” value was inactive: -103%. On to `Cc1ccnc(N2C(=O)OC(C)(C)C2(C)O)c1` (stereo unspecified), for which the activity change, positive = activation stood at 17.3%. With `CCOC(=O)c1c(C)[nH]c(C(=O)COC(=O)CCC2CCCC2)c1C`, the activity change, positive = activation was 39.7%. In the case of `Cc1c(NC(=O)c2cccnc2C(=O)O)cccc1C(=O)O`, the activity change, positive = activation stood at 5.6%.

On to `O=C(CN(c1ccc(Cl)cc1)S(=O)(=O)c1ccccc1)N/N=C/c1ccco1`, for which the activity change, positive = activation amounted to 44.2%. With `CC(=O)Nc1nc(C)c(-c2csc(Nc3ccccn3)n2)s1`, the Potency was active: 12.6 µM. As to `Cc1ccc(CN2CC(C(=O)Nc3cccc(S(=O)(=O)N4CCCCC4)c3)CC2=O)cc1` (stereo unspecified), the activity change, positive = activation was -47.7%.

For `O=C(COc1ccccc1)NNc1c2ccccc2nc2ccccc12`, the activity change, positive = activation is -71.5%. In the case of `O=C(NC1=NCCS1)C1COc2ccccc2O1` (stereo unspecified), the activity change, positive = activation was -55.1%. On the same count and under the same terms, the value for `CCC(c1nnc(SCC(=O)Nc2cc(Cl)ccc2C#N)n1C1CCCCC1)N(C)C` (stereo unspecified) was 18.1%; that for `O=C(NCC1CCCO1)c1cnn2c1NC(c1ccccc1)CC2C(F)(F)F` (stereo unspecified) was 31.2%; that for `COc1ccc(OC)c(NC(=O)CCc2c(C)nc3c(-c4ccccc4)c(C)nn3c2C)c1` was inactive: -19.4%.
